Angle of repose and fluidity data for 1 molecule are collected here from patent US11014885B2, “Method for preparing donepezil pamoate” (ZHEJIANG HUAHAI PHARMACEUTICAL CO., LTD., priority 2017, dated 2021).

The conditions of the series: powder of crystal form A obtained by the acetone/water precipitation method.

Take `COc1cc2c(cc1OC)C(=O)C(CC1CCN(Cc3ccccc3)CC1)C2` (centres unmarked) [compound of formula I, 1-benzyl-4-[(5,6-dimethoxyindan-2-one)methyl]piperidine pamoate]: the angle of repose is given as below 30 ° and the fluidity result is “good fluidity”.
